Results on two molecules are retold here after patent US9801922B2, “Compositions and methods of treating cancer” (UNIVERSITY OF IOWA RESEARCH FOUNDATION, priority 2011, dated 2017).

A short description of this series: AUR, DTPP and NAC interaction by Ellman's reagent. The note with it: for reduction of DTNB, in words: absorbance at 412 nm.

With `CC(=O)N[C@@H](CS)C(=O)O` [NAC, N-acetyl-cysteine], the “reduction of DTNB, in words” value is “capable of reducing DTNB”. Consider `CC[PH](CC)(CC)[Au][S][C@@H]1O[C@H](COC(C)=O)[C@@H](OC(C)=O)[C@H](OC(C)=O)[C@H]1OC(C)=O` [AUR, S-triethylphosphinegold(I)-2,3,4,6-tetra-O-acetyl-1-thio-β-D-glucopyranoside], for which the “reduction of DTNB, in words” value is reported as “able to reduce DTNB”. For the same molecule, the “direct reaction with NAC (412 nm absorbance), in words” value (equimolar with NAC, DTPP 24 h, AUR at least 1 h, 37° C.) was “no direct reaction between NAC and AUR”.
